Laboratory results: PubChem BioAssay AID1159578 (Peter MacCallum Cancer Centre, 2015)

- Screen: 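Knock-downs that alter how fast lymphatic endothelial cells migrate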 (primary screen)
- System: human lymphatic endothelial cells
- Knock-down reagent: siRNA pool against human genes, 40 nM
- Timing: 48 h after transfection
- Detection: 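Cells stained with dye and imaged after a scratch; covered wound area and nuclei counted, duplicates averaged, migration set against mock wells and turned into a robust z-score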
- Direction: migration robust z-score: higher = faster migration into the scratch; migration relative to mock: higher = more scratch area covered than mock; nuclei per well: higher = more cells in the well
- Active means: 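Pools averaging fewer than 3300 nuclei are never called; remaining pools count as changed when migration robust z lies outside -2 to 2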
- Meaning of the calls: active = migration changed; inactive = no migration change, or too few cells
In all, the deposit lists about 18,000 reagents; this is an unselected part. About 1,030 of all reagents (5.7%) were called active. 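Inactive calls also include pools with fewer than 3300 nuclei, whose migration was not assessed.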 Raw values vary from plate to plate and are shown uncorrected.

gene knocked down	migration robust z-score	migration class with cell-count check	migration relative to mock	nuclei per well, duplicate mean	call
SH2D3A (GeneID 10045)	0.42	migration z between -2 and 2; enough cells	1	5386	inactive
TBX21 (GeneID 30009)	1.14	migration z between -2 and 2; enough cells	1.02	4426	inactive
GSAP (GeneID 54103)	1.14	migration z between -2 and 2; enough cells	1.18	6444	inactive
ADCY7 (GeneID 113)	0.26	migration z between -2 and 2; enough cells	0.86	4553	inactive
ZNF875 (GeneID 284459)	0.54	migration z between -2 and 2; enough cells	1.02	7386	inactive
HIP1 (GeneID 3092)	-1.31	under 3300 nuclei; migration not judged	0.55	2910	inactive
RUNX2 (GeneID 860)	-0.42	migration z between -2 and 2; enough cells	0.73	5028	inactive
MIER1 (GeneID 57708)	-0.24	migration z between -2 and 2; enough cells	0.82	6540	inactive
ADCY9 (GeneID 115)	-0.16	migration z between -2 and 2; enough cells	0.84	6496	inactive
NOTCH2 (GeneID 4853)	0.57	migration z between -2 and 2; enough cells	0.92	5050	inactive
CXCL17 (GeneID 284340)	0.35	migration z between -2 and 2; enough cells	0.98	6590	inactive
CREB3L1 (GeneID 90993)	0.2	migration z between -2 and 2; enough cells	0.94	5680	inactive
DPEP1 (GeneID 1800)	-0.54	migration z between -2 and 2; enough cells	0.7	5174	inactive
BTN3A2 (GeneID 11118)	-1.49	migration z between -2 and 2; enough cells	0.5	5026	inactive
PBOV1 (GeneID 59351)	1.57	migration z between -2 and 2; enough cells	1.29	5746	inactive
MRPS25 (GeneID 64432)	1.58	migration z between -2 and 2; enough cells	1.29	5466	inactive
SLC25A20 (GeneID 788)	-1.22	migration z between -2 and 2; enough cells	0.57	6080	inactive
GCNT3 (GeneID 9245)	-1.06	migration z between -2 and 2; enough cells	0.6	5068	inactive
IGF2BP2 (GeneID 10644)	0.65	migration z between -2 and 2; enough cells	1.05	6971	inactive
CCNG2 (GeneID 901)	0.6	migration z between -2 and 2; enough cells	0.92	5654	inactive
TSPAN11 (GeneID 441631)	0.45	migration z between -2 and 2; enough cells	1	5731	inactive
DAG1 (GeneID 1605)	-0.96	migration z between -2 and 2; enough cells	0.62	5768	inactive
TYW1 (GeneID 55253)	0.4	migration z between -2 and 2; enough cells	0.99	6141	inactive

Laid out differently: results already given
ADCY9 (GeneID 115)
- migration robust z-score: -0.16
- migration class with cell-count check: migration z between -2 and 2; enough cells
- migration relative to mock: 0.84
- nuclei per well, duplicate mean: 6496
- call: inactive

NOTCH2 (GeneID 4853)
- migration robust z-score: 0.57
- migration class with cell-count check: migration z between -2 and 2; enough cells
- migration relative to mock: 0.92
- nuclei per well, duplicate mean: 5050
- call: inactive

CXCL17 (GeneID 284340)
- migration robust z-score: 0.35
- migration class with cell-count check: migration z between -2 and 2; enough cells
- migration relative to mock: 0.98
- nuclei per well, duplicate mean: 6590
- call: inactive
